For some of these results: At least one read-out could not be matched to a standard name with certainty. For some of these results: For at least one compound, name, drawing or mass did not settle the structure.
How the values were obtained:
[1] = Photostabilization of BMDBM: films on roughened glass plates irradiated with 25 MED, BMDBM content by HPLC; type: physicochemical; conditions: versus unexposed films
[2] = E1/1 value (specific UV extinction); type: physicochemical; conditions: as compared in Example 4, solvent not stated

Row | Compound | average recovery of BMDBM after irradiation ([1]; 80 mg BMDBM + 40 mg 4-methyl benzylidene camphor (MBC), 25 MED) [%] | average recovery of BMDBM after irradiation ([1]; 80 mg BMDBM + 40 mg PG-UVB of example 1, 25 MED) [%] | average recovery of BMDBM after irradiation ([1]; 80 mg BMDBM alone in C12-15 alkyl benzoate, 25 MED) [%] | E1/1 value [2]
1 | butyl methoxydibenzoylmethane [BMDBM] | 69 | 75 | 21 | 
2 | Cc1ccc(/C=C2/C(=O)C3(C)CCC2C3(C)C)cc1 (stereo not shown) [MBC, 4-methyl benzylidene camphor] |  |  |  | ~950

From patent US8735632B2, “Compounds” (DSM IP Assets B.V., priority 2009, dated 2014)
